Source: patent US20160152831A1, “YELLOW COLORANT FOR HAIR DYEING, COMPOSITION FOR HAIR DYEING, AND HAIR DYEING METHOD” (HODOGAYA CHEMICAL CO., LTD., priority 2013, published 2016)

Legend:
[1] = Hair dyeing of human gray hair in dye composition; dyeing density (K/Sd) and color values by spectrophotometer; conditions: for K/Sd (dyeing density) / L* / a* / b*: 0.2% dye, 8% benzyloxyethoxyethanol, pH 6, 45° C. 20 minutes; for color of dyed hair: Table 3 test samples, pH 6
Procedure: In the following Examples and Comparative Examples, the test samples obtained were evaluated by using a spectrophotometer (Color Technosystem, JS555). The dyeing density (K/Sd) was calculated according to the following process. The reflectance (Rλ) at an indicated wavelength (λ) of the test sample before dyeing (gray hair) and after dyeing (dyed hair) was measured with the spectrophotometer, and according to the following Kubelka-Munk equation, the optical density (K/S) was calculated. The value calculated by subtracting the optical density (K/S) of the gray hair from the optical density (K/S) of the dyed hair is referred to as the dyeing density (K/Sd).
Rλ: reflectance at wavelength (λ),
λ: 400 to 700 nm (at intervals of 10 nm)
Regarding the color, L*, ^a* and b* were measured by using the spectrophotometer and using a color coordinate system CIE L*a*b*, The L* indicates brightness and larger value means a lower coloration intensity. The a* and b* are chromaticity each indicating hue and saturation. The a* corresponds to the pair axis of red/green, and a positive value means red and a negative value means green. The b* corresponds to the pair axis of yellow/blue, and a positive value means yellow and a negative value means blue.
The color (L*, a*, b*) of the test sample before dyeing and after dyeing was measured, and from the value of the difference ΔL*, Δa* and Δb*, the color difference ΔE* was calculated according to the following equation.
ΔE*={(ΔL*)^2+(Δa*)+(Δb*)^2}^1/2
In the resultant aqueous solution having a pH of 6 were added Yellow 29 as a dye and benzyloxyethoxyethanol as a penetrant in the ratio as shown in Table 2 to prepare a composition for hair dyeing having a pH of 6. A 10 g of the thus-prepared composition for hair dyeing was metered, and 1 g of human gray hair (100%, Beaulax, Item Code BM-W-A) was put thereinto and dyed at 45° C. for 20 minutes. The resultant dyed hair was rinsed with water (running water at 15 to 25° C., for about 1 minute), then soaped under the soaping condition mentioned below, further rinsed with water (running water at 15 to 25° C., for about 1 minute), and then spontaneously dried at room temperature (about 20° C.) to prepare a test sample. In the following Examples and Comparative Examples, the pH of the composition for hair dyeing was controlled in the manner as in Table 1. In the Table, the concentration (g/kg) indicates the concentration of the p1:1 regulator in the aqueous solution.
Soaping liquid: aqueous 5% sodium laurylsulfate solution
Bath ratio: 1/10 (mass of soaping liquid relative to 1 g mass of dyed hair)
(§1) Processing temperature: 45° C.
Processing time: 5 minutes

[2] = Light-fastness test of dyed hair (xenon fade meter); assay type: physicochemical, human
Procedure: A composition for hair dyeing having a pH of 6 was prepared according to the compounding formation as shown in Table 6 by using Yellow 29 as the dye. By using the thus-prepared composition for hair dyeing, a test sample was prepared according to the same method as in Example 1. The resultant test sample was exposed to white light at an irradiation dose of 330 W/m^2 for 20 hours, by using a xenon long-life fade meter light-fastness tester Suga Test Instrument, FAL-25AX-HC-BEC Model), and the dyeing density (K/Sd) and the color values (L*, a*, b*) before and after the test, and the color difference (ΔE*) were determined. The light-fastness test was carried out under the condition where the temperature of the test sample could be from 60 to 66° C.

[3] = Shampooing-fastness test of dyed hair; assay type: physicochemical, human
Procedure: The test sample with Yellow 29 prepared in Example 1 was tested according to the shampooing-fastness test mentioned below, and the dyeing density (K/Sd) and color difference (ΔE*) before and after the test were determined. In the Table, the residual ratio (%) means the ratio of the dyeing density after the test to the dyeing density before the test.
The test sample was subjected to a cycle operation of (1) shampooing followed by (2) treatment as mentioned below, repeatedly five times in all, and then spontaneously dried at room temperature (about 20° C.).
Shampoo liquid: aqueous 5% sodium laurylsulfate solution
Bath ratio: 1/10 (mass of shampooing liquid relative to 1 g mass of dyed hair)
as §1
Processing time: 20 minutes
Post-treatment: rinsing with water
Treatment liquid: aqueous 5% trimethylstearylammonium chloride solution
Bath ratio: 1/10 (mass of treatment liquid relative to 1 g mass of dyed hair)

[4] = after test, 330 W/m^2, 20 hours
[5] = after test, white light 330 W/m^2, 20 hours
[6] = before test, 0.2% dye, 8% benzyl alcohol, 8% ethanol, pH 6
[7] = after test, 5 cycles of shampooing and treatment, 45° C.

Compound	K/Sd (dyeing density) [1]	L* [1]	a* [1]	b* [1]	color of dyed hair [1]	L* [2, 4]	a* [2, 4]	b* [2, 4]	K/Sd [2, 5]	L* ([2]; before test)	a* ([2]; before test)	b* ([2]; before test)	K/Sd [2, 6]	L* ([3]; after test, 5 cycles)	a* ([3]; after test, 5 cycles)	b* ([3]; after test, 5 cycles)	K/Sd [3, 7]	K/Sd ([3]; before test)	L* ([3]; before test)	a* ([3]; before test)	also measured
Cc1ccc(N(C)/N=C/C2=[N+](C)c3ccccc3C2(C)C)cc1 [Yellow 29, C. I. Basic Yellow 29]	96.5	68.98	18.83	72.42	standard yellow	71.33	13.79	72.82	75.1	71.38	15.36	75.08	84.6	71.12	12.62	71.99	79.2	96.5	68.98	18.83	b* ([3]; before test): 72.42
Cc1nn(-c2ccccc2)c(O)c1/N=N/c1cccc([N+](C)(C)C)c1.[Cl-] [Yellow 57, C.I. Basic Yellow 57]	28.5	74.73	1.68	47.03	pale yellow	69.71	0.98	41.17	29.7	74.81	2.08	49.92	30.4	–	–	–	–	–	–	–	–
CN(/N=C\c1cc[n+](C)cc1)c1ccccc1 [Yellow 87, C.I. Basic Yellow 87]	65.5	74.04	1.64	68.74	slightly pale yellow	–	–	–	–	–	–	–	–	75.22	−3.04	48.46	21.8	65.5	74.04	1.64	b* ([3]; before test): 69.74
